# According to the supplement of paper PMC8728848:
# The other results are listed elsewhere or left out.
# B1: TAL6-6LysM (Trichoderma atroviride) (protein)
# chain: AASKLGVPQPAQRDQVNCQLYAVQPNDNCIDISSKNNITYAQLLSWNPSLSSTCSNLASLNSSSICVSNPKGTFSISSNTVGATDIATTTAPVPSPTLDQTTSRCAKYYQVSDGDDCSHLTAQFAITLKDFIFLNSEVWQNCTNLELGYYYCVEPVGYISTYPGYLPTATTKPFNQTSATSLPYDGDPWARFSSNSSVIPIANGTRVDCYSYVYVKNLTENLFADCWNMASMYEITREELVLWNPSLGNDGSSGSNLSGAEASQVASSIAIPTTAPSSITTNLYTYPCTVAANISYCVALVSSTGALPTNTAPPGPHASGEISNCTAWFAPEAYDTCKSILDIFEMSFANFYKMNPSVGPDCSGLAVGTNYCVSTYPNGEDPNDDWDGDDSIPSISPTGIITPTPTQSGMVSNCNKFYDVHSNDGCSAIASSQHVDLSSLYKWNPAIKTDCSGLQASVYVCIGILTTSMSTTSKLPTTTSKPSTTSKPPTGITTPTPTQSGMVKNCNKFYDVHSGDGCSAIASSQKVNLSSFYLWNPAVKTDCSGLQASVFVCIGTLTTSMSTTTSKLPTTTSKPSTTSKPPTGIITPTPTQNGMVKNCNKFYDVHSGDGCSAIASSQKVNLSSFYLWNPAVKTDCSGLQASVFVCVGTATTTTAAGITTPTPTQSGMVSGCNKFYDVHAGDGCSAIASSQKIALSSLYKWNPAVKTDCSGLQASVYICIGVGNAAAARVTGAAASFLEQKLISEEDLNSAVDHHHHHH
# Assays:
# Assay in all cases: glycan array binding signal (z-score within array); higher = stronger binding
# Details in all cases: glycan notation: IUPAC condensed, linker removed
# Gal3S(b1-4)Glc = molecular target: Gal3S(b1-4)Glc
# How it was run: (§1)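 The Consortium for Functional Glycomics database supplied 3228 glycan arrays, of which those lacking an available protein sequence were dropped. The binding signal, a within-array Z-score, was averaged across arrays of the same protein sequence and across linkers. Negative scores can be read as non-binding.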
# Gal3S(b1-4)Glc6S = molecular target: Gal3S(b1-4)Glc6S
# How it was run: as §1
# Gal3S(b1-4)GlcNAc = molecular target: Gal3S(b1-4)GlcNAc
# How it was run: as §1
# [1] = molecular target: Gal3S(b1-4)[Fuc(a1-3)]Glc6S
# How it was run: as §1
# [2] = molecular target: Gal3S(b1-4)[Fuc(a1-3)]GlcNAc
# How it was run: as §1
# [3] = molecular target: Gal3S(b1-4)[Fuc(a1-3)]GlcNAc6S
# How it was run: as §1
# Gal3S4S(b1-4)GlcNAc = molecular target: Gal3S4S(b1-4)GlcNAc
# How it was run: as §1
# Gal3S6S(b1-4)GlcNAc = molecular target: Gal3S6S(b1-4)GlcNAc
# How it was run: as §1
# Gal3S6S(b1-4)GlcNAc6S = molecular target: Gal3S6S(b1-4)GlcNAc6S
# How it was run: as §1
# Gal4S(b1-4)GlcNAc = molecular target: Gal4S(b1-4)GlcNAc
# How it was run: as §1
# Gal4S6S(b1-4)GlcNAc = molecular target: Gal4S6S(b1-4)GlcNAc
# How it was run: as §1
# Gal6P(b1-4)GlcNAc = molecular target: Gal6P(b1-4)GlcNAc
# How it was run: as §1
# Gal6S(b1-3)GlcNAc = molecular target: Gal6S(b1-3)GlcNAc
# How it was run: as §1
# Gal6S(b1-3)GlcNAc6S = molecular target: Gal6S(b1-3)GlcNAc6S
# How it was run: as §1
# Gal6S(b1-4)Glc = molecular target: Gal6S(b1-4)Glc
# How it was run: as §1
# Gal6S(b1-4)Glc6S = molecular target: Gal6S(b1-4)Glc6S
# How it was run: as §1
# Gal6S(b1-4)GlcNAc = molecular target: Gal6S(b1-4)GlcNAc
# How it was run: as §1
# Gal6S(b1-4)GlcNAc6S = molecular target: Gal6S(b1-4)GlcNAc6S
# How it was run: as §1
# GalNAc(a1-3)Gal = molecular target: GalNAc(a1-3)Gal
# How it was run: as §1
# GalNAc(a1-3)GalNAc = molecular target: GalNAc(a1-3)GalNAc
# How it was run: as §1
# [4] = molecular target: GalNAc(a1-3)GalNAc(b1-3)Gal(a1-4)Gal(b1-4)Glc
# How it was run: as §1
# [5] = molecular target: GalNAc(a1-3)GalNAc(b1-3)Gal(a1-4)Gal(b1-4)GlcNAc
# How it was run: as §1
# GalNAc(b1-3)Gal = molecular target: GalNAc(b1-3)Gal
# How it was run: as §1
# [6] = molecular target: GalNAc(b1-3)Gal(a1-4)Gal(b1-4)GlcNAc
# How it was run: as §1
# [7] = molecular target: GalNAc(b1-3)Gal(a1-4)Gal(b1-4)GlcNAc(b1-3)Gal(b1-4)Glc
# How it was run: as §1
# [8] = molecular target: GalNAc(b1-3)Gal(a1-6)Gal(b1-4)Glc
# How it was run: as §1
# GalNAc(b1-3)GalNAc = molecular target: GalNAc(b1-3)GalNAc
# How it was run: as §1
# GalNAc(b1-3)GlcNAc = molecular target: GalNAc(b1-3)GlcNAc
# How it was run: as §1
# GalNAc(b1-4)Gal(b1-4)Glc = molecular target: GalNAc(b1-4)Gal(b1-4)Glc
# How it was run: as §1
# GalNAc(b1-4)GlcNAc = molecular target: GalNAc(b1-4)GlcNAc
# How it was run: as §1
# [9] = molecular target: GalNAc(b1-4)GlcNAc(b1-2)Man
# How it was run: as §1
# [10] = molecular target: GalNAc(b1-4)GlcNAc(b1-2)Man(a1-3)[GalNAc(b1-4)GlcNAc(b1-2)Man(a1-6)]Man(b1-4)GlcNAc(b1-4)GlcNAc
# How it was run: as §1
# [11] = molecular target: GalNAc(b1-4)GlcNAc(b1-3)GalNAc(b1-4)GlcNAc
# How it was run: as §1
# GalNAc(b1-4)GlcNAc6S = molecular target: GalNAc(b1-4)GlcNAc6S
# How it was run: as §1
# GalNAc(b1-6)GalNAc = molecular target: GalNAc(b1-6)GalNAc
# How it was run: as §1
# GalNAc3S(b1-4)GlcNAc = molecular target: GalNAc3S(b1-4)GlcNAc
# How it was run: as §1
# GalNAc3S(b1-4)GlcNAc3S = molecular target: GalNAc3S(b1-4)GlcNAc3S
# How it was run: as §1
# [12] = molecular target: GalNAc3S(b1-4)[Fuc(a1-3)]GlcNAc
# How it was run: as §1
# GalNAc4S6S(b1-4)GlcNAc = molecular target: GalNAc4S6S(b1-4)GlcNAc
# How it was run: as §1
# GalNAc6S(b1-4)GlcNAc = molecular target: GalNAc6S(b1-4)GlcNAc
# How it was run: as §1
# Glc(a1-4)Glc = molecular target: Glc(a1-4)Glc
# How it was run: as §1
# [13] = molecular target: Glc(a1-4)Glc(a1-4)Glc(a1-4)Glc
# How it was run: as §1
# Glc(a1-6)Glc(a1-6)Glc = molecular target: Glc(a1-6)Glc(a1-6)Glc
# How it was run: as §1
# [14] = molecular target: Glc(a1-6)Glc(a1-6)Glc(a1-6)Glc
# How it was run: as §1
# Glc(b1-4)Glc = molecular target: Glc(b1-4)Glc
# How it was run: as §1
# Glc(b1-6)Glc = molecular target: Glc(b1-6)Glc
# How it was run: as §1
# GlcA(b1-3)Gal = molecular target: GlcA(b1-3)Gal
# How it was run: as §1
# GlcA(b1-3)GlcNAc = molecular target: GlcA(b1-3)GlcNAc
# How it was run: as §1
# GlcA(b1-6)Gal = molecular target: GlcA(b1-6)Gal
# How it was run: as §1
# [15] = molecular target: GlcA3S(b1-3)Gal(b1-4)GlcNAc(b1-2)Man
# How it was run: as §1
# [16] = molecular target: GlcA3S(b1-3)Gal(b1-4)GlcNAc(b1-3)Gal(b1-4)Glc
# How it was run: as §1
# [17] = molecular target: GlcNAc(a1-3)Gal(b1-4)GlcNAc
# How it was run: as §1
# [18] = molecular target: GlcNAc(a1-4)Gal(b1-3)GlcNAc
# How it was run: as §1
# [19] = molecular target: GlcNAc(a1-4)Gal(b1-4)GalNAc
# How it was run: as §1
# [20] = molecular target: GlcNAc(a1-4)Gal(b1-4)GlcNAc
# How it was run: as §1
# [21] = molecular target: GlcNAc(a1-4)Gal(b1-4)GlcNAc(b1-3)Gal(b1-4)Glc
# How it was run: as §1
# [22] = molecular target: GlcNAc(a1-4)Gal(b1-4)GlcNAc(b1-3)Gal(b1-4)GlcNAc
# How it was run: as §1
# [23] = molecular target: GlcNAc(a1-4)Gal(b1-4)GlcNAc(b1-3)Gal(b1-4)GlcNAc(b1-3)Gal(b1-4)GlcNAc
# How it was run: as §1
# [24] = molecular target: GlcNAc(a1-4)Gal(b1-4)GlcNAc(b1-3)Gal(b1-4)[Fuc(a1-3)]GlcNAc(b1-3)Gal(b1-4)[Fuc(a1-3)]GlcNAc
# How it was run: as §1
# [25] = molecular target: GlcNAc(a1-6)Gal(b1-4)GlcNAc
# How it was run: as §1
binder,measurement,setting,value
B1,glycan array binding signal (z-score),Gal3S(b1-4)Glc,-0.868
same,glycan array binding signal (z-score),Gal3S(b1-4)Glc6S,1.86
same,glycan array binding signal (z-score),Gal3S(b1-4)GlcNAc,0.434
same,glycan array binding signal (z-score),[1],2.96
same,glycan array binding signal (z-score),[2],-0.685
same,glycan array binding signal (z-score),[3],0.703
same,glycan array binding signal (z-score),Gal3S4S(b1-4)GlcNAc,-0.547
same,glycan array binding signal (z-score),Gal3S6S(b1-4)GlcNAc,2.51
same,glycan array binding signal (z-score),Gal3S6S(b1-4)GlcNAc6S,3
same,glycan array binding signal (z-score),Gal4S(b1-4)GlcNAc,0.093
same,glycan array binding signal (z-score),Gal4S6S(b1-4)GlcNAc,0.716
same,glycan array binding signal (z-score),Gal6P(b1-4)GlcNAc,-1.32
same,glycan array binding signal (z-score),Gal6S(b1-3)GlcNAc,-0.839
same,glycan array binding signal (z-score),Gal6S(b1-3)GlcNAc6S,-1.52
same,glycan array binding signal (z-score),Gal6S(b1-4)Glc,0.457
same,glycan array binding signal (z-score),Gal6S(b1-4)Glc6S,0.948
same,glycan array binding signal (z-score),Gal6S(b1-4)GlcNAc,0
same,glycan array binding signal (z-score),Gal6S(b1-4)GlcNAc6S,-0.018
same,glycan array binding signal (z-score),GalNAc(a1-3)Gal,2.44
same,glycan array binding signal (z-score),GalNAc(a1-3)GalNAc,-1.35
same,glycan array binding signal (z-score),[4],0.454
same,glycan array binding signal (z-score),[5],-0.794
same,glycan array binding signal (z-score),GalNAc(b1-3)Gal,1.28
same,glycan array binding signal (z-score),[6],-0.315
same,glycan array binding signal (z-score),[7],0.376
same,glycan array binding signal (z-score),[8],-0.542
same,glycan array binding signal (z-score),GalNAc(b1-3)GalNAc,-0.84
same,glycan array binding signal (z-score),GalNAc(b1-3)GlcNAc,-0.241
same,glycan array binding signal (z-score),GalNAc(b1-4)Gal(b1-4)Glc,0.273
same,glycan array binding signal (z-score),GalNAc(b1-4)GlcNAc,1.07
same,glycan array binding signal (z-score),[9],-1.48
same,glycan array binding signal (z-score),[10],1.82
same,glycan array binding signal (z-score),[11],-1.49
same,glycan array binding signal (z-score),GalNAc(b1-4)GlcNAc6S,0.992
same,glycan array binding signal (z-score),GalNAc(b1-6)GalNAc,-0.303
same,glycan array binding signal (z-score),GalNAc3S(b1-4)GlcNAc,-0.702
same,glycan array binding signal (z-score),GalNAc3S(b1-4)GlcNAc3S,0.68
same,glycan array binding signal (z-score),[12],-0.003
same,glycan array binding signal (z-score),GalNAc4S6S(b1-4)GlcNAc,-1.08
same,glycan array binding signal (z-score),GalNAc6S(b1-4)GlcNAc,0.157
same,glycan array binding signal (z-score),Glc(a1-4)Glc,-0.579
same,glycan array binding signal (z-score),[13],-0.353
same,glycan array binding signal (z-score),Glc(a1-6)Glc(a1-6)Glc,-0.776
same,glycan array binding signal (z-score),[14],-0.39
same,glycan array binding signal (z-score),Glc(b1-4)Glc,-0.772
same,glycan array binding signal (z-score),Glc(b1-6)Glc,-0.129
same,glycan array binding signal (z-score),GlcA(b1-3)Gal,0.744
same,glycan array binding signal (z-score),GlcA(b1-3)GlcNAc,1.11
same,glycan array binding signal (z-score),GlcA(b1-6)Gal,0.563
same,glycan array binding signal (z-score),[15],2.02
same,glycan array binding signal (z-score),[16],0.146
same,glycan array binding signal (z-score),[17],-0.284
same,glycan array binding signal (z-score),[18],0.821
same,glycan array binding signal (z-score),[19],-0.903
same,glycan array binding signal (z-score),[20],0.445
same,glycan array binding signal (z-score),[21],-1.31
same,glycan array binding signal (z-score),[22],-1.49
same,glycan array binding signal (z-score),[23],-0.008
same,glycan array binding signal (z-score),[24],-0.365
same,glycan array binding signal (z-score),[25],0.905

# 2 entries picked at random from the list so far:
binder,measurement,setting,value
B1,glycan array binding signal (z-score),GalNAc4S6S(b1-4)GlcNAc,-1.08
same,glycan array binding signal (z-score),[22],-1.49
